PubChem BioAssay AID1259254 – NCATS | 2017
Here is an unselected part of about 59,000 deposited reagents. Of all reagents, about 1,550 (2.6%) were called active. 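G2 share is only a proxy for re-replication; each gene was hit by three separate siRNAs, and active genes were retested.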 Entries without a mark were called inactive. Reagents against one gene are numbered here. Further read-outs or replicates are left out here. No sequences are given here. Not stated in the record: the amount of reagent.

- Assay: 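Finding genes that stop cells copying their DNA twice in one cycle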 (primary screen)
- Cells: human HCT116 colorectal cancer cells
- Reagents: single siRNA against human genes
- Time to read-out: 3 days
- Measurement: 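Imaged Hoechst DNA stain sorts each cell into a cycle phase by DNA amount; per plate, G2 fraction set to 0% for non-targeting and 100% for GMNN siRNA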
- Reading the numbers: G2 robust z-score: higher = more G2 cells, more excess DNA replication
- Rule for the call: 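Active siRNAs have a G2 robust z of 5 or more median absolute deviations over the median, which in these data means about 38% or higher of GMNN control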

Which result is listed for NOXRED1 (NADP dependent oxidoreductase domain containing 1) #1?
G2 robust z-score: 0.328

What did the screen give for NOXRED1 (NADP dependent oxidoreductase domain containing 1) #2?
G2 robust z-score: 0.0637

How did the screen score NOXRED1 (NADP dependent oxidoreductase domain containing 1) #3?
G2 robust z-score: -0.619

For PLA2G2A (phospholipase A2 group IIA) #1, what was measured?
G2 robust z-score: 2.2

With PLA2G2A (phospholipase A2 group IIA) #2, what was measured?
G2 robust z-score: -0.494

How did the screen score PLA2G2A (phospholipase A2 group IIA) #3?
G2 robust z-score: 5.82 (active)

For AMTN (amelotin) #1, how do the results read?
G2 robust z-score: 0.904

What is on record for AMTN (amelotin) #2?
G2 robust z-score: -0.795

Which result is listed for AMTN (amelotin) #3?
G2 robust z-score: -0.542

Quoted from the listing for reference:
NOXRED1 (NADP dependent oxidoreductase domain containing 1) #2 | G2 robust z-score: 0.0637
NOXRED1 (NADP dependent oxidoreductase domain containing 1) #3 | G2 robust z-score: -0.619

Next reagents follow.
For ATP13A3 (ATPase 13A3) #1, what does the deposit list?
G2 robust z-score: 0.469

With ATP13A3 (ATPase 13A3) #2, what was measured?
G2 robust z-score: -0.721

With ATP13A3 (ATPase 13A3) #3, what does the deposit list?
G2 robust z-score: -0.55

For TTC12 (tetratricopeptide repeat domain 12) #1, what does the deposit list?
G2 robust z-score: -0.432

What did the screen give for TTC12 (tetratricopeptide repeat domain 12) #2?
G2 robust z-score: -0.541

For TTC12 (tetratricopeptide repeat domain 12) #3, what does the deposit list?
G2 robust z-score: -0.606

What is on record for HMGN2P46 #1?
G2 robust z-score: 1.6

With HMGN2P46 #2, what does the deposit list?
G2 robust z-score: 2.22

With HMGN2P46 #3, how do the results read?
G2 robust z-score: -0.0713

For CT83 (cancer/testis antigen 83) #1, what was measured?
G2 robust z-score: 0.0632

With CT83 (cancer/testis antigen 83) #2, how do the results read?
G2 robust z-score: -0.0813

With CT83 (cancer/testis antigen 83) #3, what was measured?
G2 robust z-score: -0.446

With DKFZp434E1119 (retired record) #1, how do the results read?
G2 robust z-score: -0.256

How did the screen score DKFZp434E1119 (retired record) #2?
G2 robust z-score: 0.557

What is on record for DKFZp434E1119 (retired record) #3?
G2 robust z-score: -0.648
